Laboratory results reported in article PMC7547721.
No constants are given. Whether binding was seen depends on the method and setting. In cells and extracts the contact can be indirect. Some binding calls cover weakened binding; strength is not graded here. For some assays here: Sequences can lack the tags named with a protein. One block for each molecule: values may come before it.

By UniProt entry, the sequences of proteins in these tests, tags left out.
UniProt Q92731: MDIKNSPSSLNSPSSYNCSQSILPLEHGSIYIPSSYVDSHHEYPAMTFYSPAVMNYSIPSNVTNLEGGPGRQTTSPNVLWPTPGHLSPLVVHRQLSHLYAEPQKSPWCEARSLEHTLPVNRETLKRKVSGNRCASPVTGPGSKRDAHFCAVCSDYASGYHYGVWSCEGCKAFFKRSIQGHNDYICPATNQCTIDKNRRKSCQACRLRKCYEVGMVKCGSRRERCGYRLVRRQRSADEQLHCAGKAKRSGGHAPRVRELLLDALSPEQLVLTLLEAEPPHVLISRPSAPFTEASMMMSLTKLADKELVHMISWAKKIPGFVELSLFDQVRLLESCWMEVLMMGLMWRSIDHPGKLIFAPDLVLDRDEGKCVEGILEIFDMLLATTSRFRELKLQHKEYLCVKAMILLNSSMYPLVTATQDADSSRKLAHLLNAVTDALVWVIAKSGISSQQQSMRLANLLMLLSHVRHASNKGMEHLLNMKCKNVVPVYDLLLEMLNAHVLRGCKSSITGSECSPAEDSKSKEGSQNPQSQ

How the values were obtained:
[1] = molecular target: T1, Fragile-site associated tumour suppressor (FATS), Flag-tagged (UniProt Q96M02); test: co-IP; A549 cells transfected with control or Flag-FATS vector for 48 h; RIPA lysate (1000 µg total protein in 500 µl) incubated overnight at 4 °C with beads carrying 1 µg of Flag, ODC or ERβ antibody or normal control IgG; three washes with lysis buffer; western blot
T1 sequence: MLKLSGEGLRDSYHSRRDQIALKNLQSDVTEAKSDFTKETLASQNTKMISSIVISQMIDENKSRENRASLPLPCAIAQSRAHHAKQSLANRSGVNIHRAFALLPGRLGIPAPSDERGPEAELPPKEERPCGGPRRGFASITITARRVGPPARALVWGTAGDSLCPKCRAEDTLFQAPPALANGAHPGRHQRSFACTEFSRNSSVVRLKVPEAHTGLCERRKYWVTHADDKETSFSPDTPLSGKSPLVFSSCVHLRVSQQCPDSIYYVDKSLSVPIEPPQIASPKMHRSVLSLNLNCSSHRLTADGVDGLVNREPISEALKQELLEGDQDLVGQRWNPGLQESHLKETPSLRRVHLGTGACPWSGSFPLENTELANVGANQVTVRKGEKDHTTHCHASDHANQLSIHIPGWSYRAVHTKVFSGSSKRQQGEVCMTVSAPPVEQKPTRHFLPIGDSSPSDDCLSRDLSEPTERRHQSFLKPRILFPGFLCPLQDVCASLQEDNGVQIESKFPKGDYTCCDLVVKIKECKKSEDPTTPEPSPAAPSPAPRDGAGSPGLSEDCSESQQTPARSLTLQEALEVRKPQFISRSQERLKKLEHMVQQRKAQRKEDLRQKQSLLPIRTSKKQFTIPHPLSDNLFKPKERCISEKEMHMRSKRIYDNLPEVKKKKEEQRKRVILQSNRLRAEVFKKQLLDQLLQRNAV

[2] = molecular target: Oestrogen receptor beta (ERβ) (human (endogenous in A549)) (UniProt Q92731); test: as above

binding [1]: binds
Molecule: Oestrogen receptor beta (ERβ) (from UniProt Q92731 1-530)

binding [2]: binds
B1: Ornithine decarboxylase (ODC) (enzyme, UniProt P11926 1-461)
chain: MNNFGNEEFDCHFLDEGFTAKDILDQKINEVSSSDDKDAFYVADLGDILKKHLRWLKALPRVTPFYAVKCNDSKAIVKTLAATGTGFDCASKTEIQLVQSLGVPPERIIYANPCKQVSQIKYAANNGVQMMTFDSEVELMKVARAHPKAKLVLRIATDDSKAVCRLSVKFGATLRTSRLLLERAKELNIDVVGVSFHVGSGCTDPETFVQAISDARCVFDMGAEVGFSMYLLDIGGGFPGSEDVKLKFEEITGVINPALDKYFPSDSGVRIIAEPGRYYVASAFTLAVNIIAKKIVLKEQTGSDDEDESSEQTFMYYVNDGVYGSFNCILYDHAHVKPLLQKRPKPDEKYYSSSIWGPTCDGLDRIVERCDLPEMHVGDWMLFENMGAYTVAAASTFNGFQRPTIYYVMSGPAWQLMQQFQNPDFPPEVEEQDASTLPVSCAWESGMKRHRAACASASINV
